The target of assay [1] is GST-rab5. The assay can be described thus: pull-down; GST-rab4 and GST-rab5 on GSH beads, loaded with GMP-PNP or GDP, incubated with rescued mocha cell lysate; blots for δ-adaptin and rabaptin-5α; only the target purified.
Assay [2] addresses GST-rab4. The description is as above.

These are yes or no findings as the source states them, for the method shown. Binding seen in cells or lysates may run through a third protein.

B1: δ-adaptin (rescued mocha fibroblasts) (protein, UniProt O14617 1-1153)
chain: MALKMVKGSIDRMFDKNLQDLVRGIRNHKEDEAKYISQCIDEIKQELKQDNIAVKANAVCKLTYLQMLGYDISWAAFNIIEVMSASKFTFKRIGYLAASQSFHEGTDVIMLTTNQIRKDLSSPSQYDTGVALTGLSCFVTPDLARDLANDIMTLMSHTKPYIRKKAVLIMYKVFLKYPESLRPAFPRLKEKLEDPDPGVQSAAVNVICELARRNPKNYLSLAPLFFKLMTSSTNNWVLIKIIKLFGALTPLEPRLGKKLIEPLTNLIHSTSAMSLLYECVNTVIAVLISLSSGMPNHSASIQLCVQKLRILIEDSDQNLKYLGLLAMSKILKTHPKSVQSHKDLILQCLDDKDESIRLRALDLLYGMVSKKNLMEIVKKLMTHVDKAEGTTYRDELLTKIIDICSQSNYQYITNFEWYISILVELTRLEGTRHGHLIAAQMLDVAIRVKAIRKFAVSQMSALLDSAHLLASSTQRNGICEVLYAAAWICGEFSEHLQEPHHTLEAMLRPRVTTLPGHIQAVYVQNVVKLYASILQQKEQAGEAEGAQAVTQLMVDRLPQFVQSADLEVQERASCILQLVKHIQKLQAKDVPVAEEVSALFAGELNPVAPKAQKKVPVPEGLDLDAWINEPLSDSESEDERPRAVFHEEEQRRPKHRPSEADEEELARRREARKQEQANNPFYIKSSPSPQKRYQDTPGVEHIPVVQIDLSVPLKVPGLPMSDQYVKLEEERRHRQKLEKDKRRKKRKEKEKKGKRRHSSLPTESDEDIAPAQQVDIVTEEMPENALPSDEDDKDPNDPYRALDIDLDKPLADSEKLPIQKHRNTETSKSPEKDVPMVEKKSKKPKKKEKKHKEKERDKEKKKEKEKKKSPKPKKKKHRKEKEERTKGKKKSKKQPPGSEEAAGEPVQNGAPEEEQLPPESSYSLLAENSYVKMTCDIRGSLQEDSQVTVAIVLENRSSSILKGMELSVLDSLNARMARPQGSSVHDGVPVPFQLPPGVSNEAQYVFTIQSIVMAQKLKGTLSFIAKNDEGATHEKLDFRLHFSCSSYLITTPCYSDAFAKLLESGDLSMSSIKVDGIRMSFQNLLAKICFHHHFSVVERVDSCASMYSRSIQGHHVCLLVKKGENSVSVDGKCSDSTLLSNLLEEMKATLAKC
On to B1, for which the binding result in assay [1] and in assay [2] was “no binding” throughout.

Source of the values: paper PMC3483219.
